Taken from: PubChem BioAssay AID1259298 (Sanger Institute, 2017)

Test: 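Kinases whose loss strengthens killing by BYL719, cetuximab or trametinib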 (primary screen)
System: HT55 human colorectal cancer cell line
Knock-down reagent: siRNA pool against human genes
Challenge: anchor drug BYL719 1 µM, cetuximab 5 µg/ml or trametinib 10 nM, or DMSO vehicle alone
Measurement: 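Mean viability over replicates versus non-targeting pool, a robust z-score without drug, and per-drug synergy scores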
Reading the numbers: robust z-score, knock-down alone: higher = more cells remaining; low means essential gene
Call rule: 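a gene counts as essential if its knock-down-alone robust z-score falls under -3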
Meaning of the calls: active = essential (knock-down alone); inactive = no change alone
The whole screen tested 794 reagents; below is an unselected part. 20 of them (2.5%) were called active. 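Calls rest only on the knock-down-alone score; drug synergy scores played no part in them.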 Not all columns of the deposit are shown. No sequences are given here. The record does not give: the amount of reagent, the time to read-out.

gene | robust z-score, knock-down alone | Outcome
GRK4 | -1.39 | inactive
PRKAR1A | 0.58 | inactive
PIK3CD | 0.58 | inactive
BMAL1 | -3.86 | active
BMPR1A | -0.246 | inactive
ROCK2 | -0.0478 | inactive
MPP2 | 0.58 | inactive
GOLGA5 | 0.58 | inactive
STAG2 | 0.58 | inactive
RIOK3 | 0.354 | inactive
BRD2 | 0.58 | inactive
MYLK2 | -2.12 | inactive
HUNK | 0.104 | inactive
LIMK1 | 0.58 | inactive
TBCK | 0.58 | inactive
CAMKV | 0.58 | inactive
DGKA | -1.9 | inactive
GRK5 | 0.58 | inactive
LIMK2 | 0.58 | inactive
DMPK | 0.58 | inactive
TRPM6 | 0.58 | inactive
PRKG1 | 0.36 | inactive
MAGI2 | 0.58 | inactive
GUCY2EP | -0.182 | inactive
ERN2 | 0.58 | inactive
CKS1B | 0.58 | inactive
SLK | 0.58 | inactive
IKBKE | 0.193 | inactive
GAK | 0.58 | inactive
MLKL | 0.58 | inactive
CDC42BPA | -2.76 | inactive
PRKDC | 0.58 | inactive
PLK2 | 0.58 | inactive
OXSR1 | 0.58 | inactive
PIP5KL1 | 0.58 | inactive
MAST2 | 0.58 | inactive
DTYMK | 0.58 | inactive
SMC1A | -0.23 | inactive
TSSK6 | -1.52 | inactive
CDC7 | 0.58 | inactive
CLK1 | 0.58 | inactive
LMTK3 | 0.0138 | inactive
ITPK1 | 0.58 | inactive
DIS3 | 0.58 | inactive
FRK | -0.968 | inactive
MAP3K14 | 0.357 | inactive
NRAS | 0.58 | inactive
AURKC | 0.58 | inactive
ALPK3 | 0.373 | inactive
COMMD3 | -0.0339 | inactive
